In patent publication US5234907A (Hoffmann-La Roche Inc., priority 1991, dated 1993):

Tests used:
[1] = Fmoc solid-phase peptide synthesis; Fmoc-Tm-MBHA resin; DCC or DIC, HOBT; preformed symmetrical anhydrides; conditions: whole synthesis, scale 0.11 mmol
[2] = solid-phase peptide synthesis; conditions: whole synthesis, scale 0.1 mmol

Row | Substance | isolated mass [1] | crude mass [2] | isolated mass [2]
1 | Ac-(SEQ ID NO: 12)-NH2 | 35.7 mg | – | –
2 | Ac-(SEQ ID NO: 19)-NH2 | – | 280 mg | 12.4 mg
